Results taken from article PMC6065441.
No constants are given. Whether binding was seen depends on the method and setting. Some results given as binding are weak or reduced against the parent protein; the word gives no strength.

How the values were obtained:
[1] = molecular target: GNL1 full length, fusion with GAL4 DNA-DB/c-MYC (bait) (human) (UniProt P36915); test: two-hybrid; clone A14/1 transformed again into AH109 yeast expressing GNL1, selection on SD X-α-Gal/-Ade/-His/-Leu/-Trp agar plates, blue colonies
[2] = molecular target: GNL1 full length, fusion with GAL4 DNA-DB/c-MYC (bait) (human) (UniProt P36915); test: two-hybrid; library screen: GNL1 in pGBKT7 as bait, human leukocyte cDNA library in pAct2 as prey, AH109 yeast, selection on SD X-α-Gal/-Ade/-His/-Leu/-Trp, positive clones sequenced

With “RPS20 amino acids 41 to 119 (clone A14/1), fusion with GAL4-AD/HA (prey) (from UniProt P60866 41-119) (domain or fragment)” the binding [1] was “binds” and the binding [2] was “binds”.
